From publication PMC11754618
These are yes or no findings as the source states them, for the method shown. Some results given as binding are weak or reduced against the parent protein; the word gives no strength. For some assays here: Tags and fused reporters may be left off the sequences shown.

Amino acid sequences for entries named in this document (tags omitted).
UniProt Q9Y5T5: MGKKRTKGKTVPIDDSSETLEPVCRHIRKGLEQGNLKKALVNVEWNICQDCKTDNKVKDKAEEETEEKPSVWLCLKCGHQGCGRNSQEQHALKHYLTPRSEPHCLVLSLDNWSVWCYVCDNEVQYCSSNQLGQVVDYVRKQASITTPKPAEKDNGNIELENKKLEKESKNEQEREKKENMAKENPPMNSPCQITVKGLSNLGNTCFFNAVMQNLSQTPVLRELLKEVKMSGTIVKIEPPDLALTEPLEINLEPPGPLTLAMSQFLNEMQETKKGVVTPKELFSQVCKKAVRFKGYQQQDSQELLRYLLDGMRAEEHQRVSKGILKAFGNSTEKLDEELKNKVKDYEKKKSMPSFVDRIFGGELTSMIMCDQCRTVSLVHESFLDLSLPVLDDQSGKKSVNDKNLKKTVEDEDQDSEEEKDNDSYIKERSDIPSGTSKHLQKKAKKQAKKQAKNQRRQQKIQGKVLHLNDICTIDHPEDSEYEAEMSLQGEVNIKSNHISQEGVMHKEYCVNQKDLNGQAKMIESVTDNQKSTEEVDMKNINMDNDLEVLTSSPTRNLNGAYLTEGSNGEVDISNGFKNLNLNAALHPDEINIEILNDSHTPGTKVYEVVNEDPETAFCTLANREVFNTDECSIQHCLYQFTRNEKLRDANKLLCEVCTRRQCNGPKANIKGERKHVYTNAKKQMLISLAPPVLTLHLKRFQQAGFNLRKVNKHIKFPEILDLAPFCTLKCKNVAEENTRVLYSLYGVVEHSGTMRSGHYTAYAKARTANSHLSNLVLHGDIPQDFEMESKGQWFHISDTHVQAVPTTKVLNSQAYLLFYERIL
UniProt P45974: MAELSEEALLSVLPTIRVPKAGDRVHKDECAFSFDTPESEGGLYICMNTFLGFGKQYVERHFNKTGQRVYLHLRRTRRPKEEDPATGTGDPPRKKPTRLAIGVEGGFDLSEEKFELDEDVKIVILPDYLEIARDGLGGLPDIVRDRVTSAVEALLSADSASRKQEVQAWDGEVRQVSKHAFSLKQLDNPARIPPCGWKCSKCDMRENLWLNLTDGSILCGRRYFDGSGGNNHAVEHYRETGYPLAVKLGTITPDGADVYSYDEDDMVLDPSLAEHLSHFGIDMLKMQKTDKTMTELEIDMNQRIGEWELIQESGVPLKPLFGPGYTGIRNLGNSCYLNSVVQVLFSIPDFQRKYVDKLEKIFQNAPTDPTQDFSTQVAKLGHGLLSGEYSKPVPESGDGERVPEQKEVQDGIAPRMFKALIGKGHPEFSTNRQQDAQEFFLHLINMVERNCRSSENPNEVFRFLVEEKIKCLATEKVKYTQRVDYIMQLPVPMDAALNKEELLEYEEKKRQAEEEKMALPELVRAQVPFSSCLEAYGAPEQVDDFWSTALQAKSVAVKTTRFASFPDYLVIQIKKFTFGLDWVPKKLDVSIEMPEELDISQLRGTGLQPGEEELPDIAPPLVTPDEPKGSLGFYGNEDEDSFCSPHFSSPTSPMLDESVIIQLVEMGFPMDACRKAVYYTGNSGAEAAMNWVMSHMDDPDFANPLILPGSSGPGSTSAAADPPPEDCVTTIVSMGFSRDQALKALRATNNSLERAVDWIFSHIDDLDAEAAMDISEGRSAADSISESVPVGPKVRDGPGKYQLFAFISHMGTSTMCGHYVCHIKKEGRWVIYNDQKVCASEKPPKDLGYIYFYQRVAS

Assays:
[1] = target: recombinant human USP16 (human) (UniProt Q9Y5T5); experiment: covalent labelling by an activity-based probe (SDS-PAGE); equimolar mixture of recombinant human USP18 and USP16 with Ac-mISG15CTD-PA probes (Supplementary Fig. 20); both purified
USP18^WT-FLAG = target: T1, USP18^WT-FLAG (UniProt Q9UMW8); experiment: covalent labelling by an activity-based probe (SDS-PAGE); only the binder purified
T1 sequence: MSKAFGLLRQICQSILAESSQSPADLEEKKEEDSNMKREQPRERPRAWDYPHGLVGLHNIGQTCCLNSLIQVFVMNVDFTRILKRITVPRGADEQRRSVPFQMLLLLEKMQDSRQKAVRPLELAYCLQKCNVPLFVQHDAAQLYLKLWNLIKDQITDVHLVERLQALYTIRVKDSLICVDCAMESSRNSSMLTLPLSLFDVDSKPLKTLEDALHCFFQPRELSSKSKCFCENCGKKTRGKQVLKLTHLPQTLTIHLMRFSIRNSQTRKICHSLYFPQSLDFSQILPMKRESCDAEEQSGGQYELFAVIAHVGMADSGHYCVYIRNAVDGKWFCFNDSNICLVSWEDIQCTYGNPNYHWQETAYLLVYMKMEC

USP5 (recombinant) [2] = target: USP5 (recombinant) (UniProt P45974); experiment: covalent labelling by an activity-based probe (SDS-PAGE); recombinant USP18 (2 μM), USP5 (1 μM) or USP16 (0.45 μM) with Ac-Ubl-PA probes (10 μM), 3 h, room temperature; higher band on SDS-PAGE, SYPRO Ruby staining; both purified
[3] = target: recombinant human USP16 (human) (UniProt Q9Y5T5); experiment: as above
USP5 (recombinant) [4] = target: USP5 (recombinant) (UniProt P45974); experiment: covalent labelling by an activity-based probe (SDS-PAGE); labelling of USP5 by hISG15FL- and mISG15CTD-based probes (Supplementary Fig. 1B); conditions not shown

binding [1]: binds | binding (USP18^WT-FLAG): binds | binding (USP5 (recombinant) [2]): binds | binding [3]: binds | binding (USP5 (recombinant) [4]): binds
B1: Ac-mISG15CTD[WT]-PA (domain or fragment)
chain: LSILVRNERGHSNIYEVFLTQTVDTLKKKVSQREQVHEDQFWLSFEGRPMEDKELLGEYGLKPQSTVIKHLRLRG
modifications: N-terminal acetyl; C-terminal propargylamine (PA) warhead replacing Gly155
